According to US6673769B2, “Lanthionine bridged peptides” (priority 1991, dated 2004):
For part of these data: Not every detail of the peptide structures is certain; ends, links or a residue may be inferred. At least one structure is not confirmed: it was looked up by name or label, or the drawing left a doubt.

Amino acid sequences for entries named in this document (tags omitted). A change or cut given only in a name is not applied to a line headed by its entry. Residues count along the entry.
UniProt A0ACM8Q262, 1-400: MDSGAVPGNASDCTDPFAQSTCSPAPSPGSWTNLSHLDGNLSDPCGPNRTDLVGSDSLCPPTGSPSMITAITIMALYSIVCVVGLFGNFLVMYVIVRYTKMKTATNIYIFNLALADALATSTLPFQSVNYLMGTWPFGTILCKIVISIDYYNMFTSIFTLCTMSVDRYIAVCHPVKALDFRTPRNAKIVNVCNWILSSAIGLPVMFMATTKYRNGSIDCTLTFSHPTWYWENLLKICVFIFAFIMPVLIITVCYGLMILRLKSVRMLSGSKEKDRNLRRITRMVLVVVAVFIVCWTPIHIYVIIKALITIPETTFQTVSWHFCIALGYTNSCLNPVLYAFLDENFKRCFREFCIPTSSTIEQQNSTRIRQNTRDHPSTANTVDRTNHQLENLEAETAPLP
UniProt P32300, whole entry: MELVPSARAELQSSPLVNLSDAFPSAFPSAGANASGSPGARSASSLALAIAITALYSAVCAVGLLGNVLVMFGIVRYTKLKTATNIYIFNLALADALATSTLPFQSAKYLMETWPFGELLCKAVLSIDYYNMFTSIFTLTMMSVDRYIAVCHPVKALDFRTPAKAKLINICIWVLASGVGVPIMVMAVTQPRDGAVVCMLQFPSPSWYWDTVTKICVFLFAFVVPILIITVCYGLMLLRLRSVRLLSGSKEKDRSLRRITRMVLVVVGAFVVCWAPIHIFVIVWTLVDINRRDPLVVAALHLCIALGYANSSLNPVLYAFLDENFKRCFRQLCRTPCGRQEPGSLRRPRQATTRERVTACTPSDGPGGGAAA

Columns and labels:
[1] = target: T1, GPI (μ-receptor) (Cavia porcellus, UniProt A0ACM8Q262); assay: GPI (guinea pig ileum) isolated organ bioassay; assay type: cell-based
T1 construct: rows headed: GPI IC50; bioactivity at the GPI (μ-receptor) relative to [Leu5]-enkephalin

[2] = target: T2, MVD (δ-receptor) (Mus musculus, UniProt P32300); assay type: cell-based
T2 construct: The vas is then mounted under 0.5 g tension in a 5 ml organ bath; from tissue; host or cells: mouse vas deferens (Swiss Webster)

[3] = Rat hot plate in vivo test after intrathecal dosage

SMILES	bioactivity at the GPI (μ-receptor) relative to [Leu5]-enkephalin [1]	IC50 ratio (MVD/GPI) [2]	bioactivity at the MVD (δ-receptor) relative to [Leu5]-enkephalin [2]	in vivo activity relative to DCLCE [3]	in vivo bioactivity relative to morphine [3]	IC50 ([2]; inhibition of electrically evoked twitch of mouse vas deferens)
NC(=O)[C@@H]1CSC[C@@H](NC(=O)[C@@H](N)Cc2ccc(O)cc2)C(=O)NCC(=O)N[C@@H](Cc2ccccc2)C(=O)N1 [Tyr-c[D-AlaL-Gly-Phe-L-AlaL]-NH2]	400 times	0.9	20 times	twice	37 times	–
COC(=O)[C@@H]1CSC(C)(C)[C@@H](NC(=O)[C@@H](N)Cc2ccc(O)cc2)C(=O)NCC(=O)N[C@@H](Cc2ccccc2)C(=O)N1 [Tyr-c[D-ValL-Gly-Phe-L-AlaL]-OMe]	–	–	–	–	–	3.65 nM
